The supplement of paper PMC8728848
The other results are listed elsewhere or left out.

Legend:
Assay in all cases: glycan array binding signal (z-score within array); higher = stronger binding
Settings in all cases: glycan notation: IUPAC condensed, linker removed
[1] = target: Neu5Ac(a2-3)Gal(b1-4)GlcNAc(b1-3)Gal(b1-4)GlcNAc(b1-3)Gal(b1-4)GlcNAc
Outline: (§1)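 Columns mapping to the same glycan were averaged after glycan names were converted to IUPAC-condensed notation. The data come from 3228 arrays in the Consortium for Functional Glycomics database, limited to those with an available protein sequence. Binding is reported as a within-array Z-score averaged across arrays of one protein sequence and across linkers.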

[2] = target: Neu5Ac(a2-3)Gal(b1-4)GlcNAc(b1-3)Gal(b1-4)GlcNAc(b1-3)Gal(b1-4)GlcNAc(b1-2)Man(a1-3)[Neu5Ac(a2-3)Gal(b1-4)GlcNAc(b1-3)Gal(b1-4)GlcNAc(b1-3)Gal(b1-4)GlcNAc(b1-2)Man(a1-6)]GalNAc
Outline: as §1

[3] = target: Neu5Ac(a2-3)Gal(b1-4)GlcNAc(b1-3)Gal(b1-4)GlcNAc(b1-3)GalNAc
Outline: as §1

[4] = target: Neu5Ac(a2-3)Gal(b1-4)GlcNAc(b1-3)Gal(b1-4)GlcNAc(b1-3)[Neu5Ac(a2-3)Gal(b1-4)GlcNAc(b1-3)Gal(b1-4)GlcNAc(b1-6)]GalNAc
Outline: as §1

[5] = target: Neu5Ac(a2-3)Gal(b1-4)GlcNAc(b1-3)Gal(b1-4)GlcNAc(b1-6)[Gal(b1-3)]GalNAc
Outline: as §1

[6] = target: Neu5Ac(a2-3)Gal(b1-4)GlcNAc(b1-3)Gal(b1-4)[Fuc(a1-3)]GlcNAc
Outline: as §1

[7] = target: Neu5Ac(a2-3)Gal(b1-4)GlcNAc(b1-3)GalNAc
Outline: as §1

[8] = target: Neu5Ac(a2-3)Gal(b1-4)GlcNAc(b1-3)[Neu5Ac(a2-3)Gal(b1-4)GlcNAc(b1-6)]GalNAc
Outline: as §1

[9] = target: Neu5Ac(a2-3)Gal(b1-4)GlcNAc(b1-6)GalNAc
Outline: as §1

[10] = target: Neu5Ac(a2-3)Gal(b1-4)GlcNAc(b1-6)[Gal(b1-3)]GalNAc
Outline: as §1

[11] = target: Neu5Ac(a2-3)Gal(b1-4)GlcNAc(b1-6)[Neu5Ac(a2-3)Gal(b1-3)]GalNAc
Outline: as §1

[12] = target: Neu5Ac(a2-3)Gal(b1-4)GlcNAc6S
Outline: as §1

[13] = target: Neu5Ac(a2-3)Gal(b1-4)[Fuc(a1-3)]GlcNAc
Outline: as §1

[14] = target: Neu5Ac(a2-3)Gal(b1-4)[Fuc(a1-3)]GlcNAc(b1-2)Man
Outline: as §1

[15] = target: Neu5Ac(a2-3)Gal(b1-4)[Fuc(a1-3)]GlcNAc(b1-3)Gal
Outline: as §1

[16] = target: Neu5Ac(a2-3)Gal(b1-4)[Fuc(a1-3)]GlcNAc(b1-3)Gal(b1-4)GlcNAc
Outline: as §1

[17] = target: Neu5Ac(a2-3)Gal(b1-4)[Fuc(a1-3)]GlcNAc(b1-3)Gal(b1-4)[Fuc(a1-3)]GlcNAc(b1-3)Gal(b1-4)[Fuc(a1-3)]GlcNAc
Outline: as §1

[18] = target: Neu5Ac(a2-3)Gal(b1-4)[Fuc(a1-3)]GlcNAc(b1-3)GalNAc
Outline: as §1

[19] = target: Neu5Ac(a2-3)Gal(b1-4)[Fuc(a1-3)]GlcNAc(b1-6)[Gal(b1-3)]GalNAc
Outline: as §1

[20] = target: Neu5Ac(a2-3)Gal(b1-4)[Fuc(a1-3)]GlcNAc(b1-6)[Neu5Ac(a2-3)Gal(b1-3)]GalNAc
Outline: as §1

[21] = target: Neu5Ac(a2-3)Gal(b1-4)[Fuc(a1-3)]GlcNAc6S
Outline: as §1

[22] = target: Neu5Ac(a2-3)Gal6S(b1-4)GlcNAc
Outline: as §1

[23] = target: Neu5Ac(a2-3)Gal6S(b1-4)[Fuc(a1-3)]GlcNAc
Outline: as §1

[24] = target: Neu5Ac(a2-3)GalNAc
Outline: as §1

[25] = target: Neu5Ac(a2-3)GalNAc(b1-4)GlcNAc
Outline: as §1

[26] = target: Neu5Ac(a2-3)[GalNAc(b1-4)]Gal(b1-4)Glc
Outline: as §1

[27] = target: Neu5Ac(a2-3)[GalNAc(b1-4)]Gal(b1-4)GlcNAc
Outline: as §1

[28] = target: Neu5Ac(a2-3)[GalNAc(b1-4)]Gal(b1-4)GlcNAc(b1-3)GalNAc
Outline: as §1

[29] = target: Neu5Ac(a2-3)[Neu5Ac(a2-6)]GalNAc
Outline: as §1

[30] = target: Neu5Ac(a2-6)Gal
Outline: as §1

[31] = target: Neu5Ac(a2-6)Gal(b1-3)GlcNAc(b1-3)[Gal(b1-4)GlcNAc(b1-6)]Gal(b1-4)Glc
Outline: as §1

[32] = target: Neu5Ac(a2-6)Gal(b1-4)Glc
Outline: as §1

[33] = target: Neu5Ac(a2-6)Gal(b1-4)GlcNAc
Outline: as §1

[34] = target: Neu5Ac(a2-6)Gal(b1-4)GlcNAc(b1-2)Man
Outline: as §1

[35] = target: Neu5Ac(a2-6)Gal(b1-4)GlcNAc(b1-2)Man(a1-3)Man(b1-4)GlcNAc(b1-4)GlcNAc
Outline: as §1

[36] = target: Neu5Ac(a2-6)Gal(b1-4)GlcNAc(b1-2)Man(a1-3)[Gal(b1-4)GlcNAc(b1-2)Man(a1-6)]Man(b1-4)GlcNAc(b1-4)GlcNAc
Outline: as §1

[37] = target: Neu5Ac(a2-6)Gal(b1-4)GlcNAc(b1-2)Man(a1-3)[GlcNAc(b1-2)Man(a1-6)]Man(b1-4)GlcNAc(b1-4)GlcNAc
Outline: as §1

[38] = target: Neu5Ac(a2-6)Gal(b1-4)GlcNAc(b1-2)Man(a1-3)[GlcNAc(b1-4)][Neu5Ac(a2-6)Gal(b1-4)GlcNAc(b1-2)Man(a1-6)]Man(b1-4)GlcNAc(b1-4)GlcNAc
Outline: as §1

B1: Aap lectin (Staphylococcus epidermidis) (protein)
chain: VNLNYSSPFMSLLSMPADSSSNNTKNTIDIPPTTVKGRDNYDFYGRVDIESNPTDLNATNLTRYNYGQPPGTTTAGAVQFKNQVSFDKDFDFNIRVANNRQSNTTGADGWGFMFSKKDGDDFLKNGGILREKGTPSAAGFRIDTGYYNNDPLDKIQKQAGQGYRGYGTFVKNDSQGNTSKVGSGTPSTDFLNYADNTTNDLDGKFHGQKLNNVNLKYNASNQTFTATYAGKTWTATLSELGLSPTDSYNFLVTSS
glycan array binding signal (z-score) [1]: -0.514
glycan array binding signal (z-score) [2]: 2.15
glycan array binding signal (z-score) [3]: -0.918
glycan array binding signal (z-score) [4]: -0.88
glycan array binding signal (z-score) [5]: -0.583
glycan array binding signal (z-score) [6]: -0.494
glycan array binding signal (z-score) [7]: -0.799
glycan array binding signal (z-score) [8]: -0.878
glycan array binding signal (z-score) [9]: -0.544
glycan array binding signal (z-score) [10]: 1.15
glycan array binding signal (z-score) [11]: -0.634
glycan array binding signal (z-score) [12]: 0.165
glycan array binding signal (z-score) [13]: -0.756
glycan array binding signal (z-score) [14]: -0.708
glycan array binding signal (z-score) [15]: -0.104
glycan array binding signal (z-score) [16]: -0.095
glycan array binding signal (z-score) [17]: 1.12
glycan array binding signal (z-score) [18]: -0.446
glycan array binding signal (z-score) [19]: 1.22
glycan array binding signal (z-score) [20]: 1.18
glycan array binding signal (z-score) [21]: -0.838
glycan array binding signal (z-score) [22]: -0.476
glycan array binding signal (z-score) [23]: 0.427
glycan array binding signal (z-score) [24]: -0.889
glycan array binding signal (z-score) [25]: -0.779
glycan array binding signal (z-score) [26]: 1.1
glycan array binding signal (z-score) [27]: -0.908
glycan array binding signal (z-score) [28]: 1.26
glycan array binding signal (z-score) [29]: -0.893
glycan array binding signal (z-score) [30]: 0.438
glycan array binding signal (z-score) [31]: -0.894
glycan array binding signal (z-score) [32]: 0.627
glycan array binding signal (z-score) [33]: -0.602
glycan array binding signal (z-score) [34]: -0.328
glycan array binding signal (z-score) [35]: -0.873
glycan array binding signal (z-score) [36]: -0.696
glycan array binding signal (z-score) [37]: -0.88
glycan array binding signal (z-score) [38]: -0.576
